The assay in a line: qHTS Assay for Lipid Storage Modulators in Drosophila S3 Cells.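 For cell number change: cells counted by Cell Tracker Red CMTPX staining in the red channel.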 The settings on record: BODIPY lipid droplet fluorescence, 18-24 h; for cell number change: measured here: cell count max response, cells fed with added oleic acid. The gist of the method:
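Laser-scanning cytometry quantifies lipid droplet accumulation (500–530 nm total intensity; droplet/cell object ratio) in oleic acid-fed (400 uM added) Drosophila S3 cells treated with a concentration series. 20 uM Triacsin C defined 100% inhibition.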
Background: Quantitative high-throughput screening tests each substance at several concentrations.

The mark [1] stands for this setting: measured here: cell number channel AC50, cells fed with added oleic acid.
The mark [2] stands for this setting: measured here: lipid fluorescence (Fed channel) AC50, cells fed with added oleic acid.

Structures are written as SMILES. This is one part of the list. These are further read-outs of the screen, such as a control signal, another cell line or another target. No call is given for them. Most of these compounds were active or inconclusive in the main read-out, so they are no random draw. Potencies come from curve fits of mixed quality, noted in brackets.

What is called AC50 is the midpoint of the concentration-response curve, whichever way the signal moves. A low value points to greater potency.

`CCCn1c(OC)nc2c1c(=O)n(C)c(=O)n2C`: the cell number change was 27.6%. Further, under setting [1], the AC50 is 0.731 µM [falling, full curve]. For the same compound, the AC50 under setting [2] was 6.51 µM [falling, single point].

Consider `COc1ccc(-c2nsc3c(N4CCN(S(=O)(=O)c5ccccc5)CC4)ncnc23)cc1`, for which the cell number change is -4.1%.

For the compound `O/N=C/c1cc(Br)ccc1OCc1cccc(F)c1`, under setting [2], the AC50 is 25.9 µM [falling, single point].

In the case of `Cc1nc2c3ccccc3nc(NNC(=O)CCC(=O)NCCN3CCN(c4ccccc4)CC3)n2n1`, the cell number change is -17.9%. The AC50 under setting [2] was 29.1 µM [falling, single point].

In the case of `Fc1ccc(NC(=S)N2CCN(c3cccc(C(F)(F)F)c3)CC2)cc1`, the cell number change was -7.32%. The AC50 under setting [1] was 2.06 µM [rising, partial curve]. For the same compound, the AC50 under setting [2] is 20.6 µM [falling, single point].

Consider `CCOc1ccc(Cl)cc1S(=O)(=O)N1CCN(c2ccc(F)cc2)CC1`, for which, under setting [1], the AC50 was 0.58 µM [rising, full curve].

For the compound `O=C(Nc1ccc(F)cc1)c1ccccc1Oc1ccc(C(F)(F)F)cc1[N+](=O)[O-]`, the cell number change was -28.7%. In addition, the AC50 under setting [2] was 29.1 µM [falling, partial curve, poor fit].

As to `O=C(COC(=O)c1ccccc1-n1cnnn1)c1ccccc1`, the cell number change was -5.02%. Also, the AC50 under setting [2] was 18.4 µM [rising, single point].

For the compound `N#Cc1cc2c(nc1SCC(=O)Nc1sc3c(c1C#N)CCC3)CCC2`, the cell number change is -11.6%. For the same compound, the AC50 under setting [2] is 6.51 µM [falling, single point].

For `O=C(Nc1ccccc1N1CCN(C(=O)c2ccc(Cl)cc2)CC1)c1cccnc1`, the cell number change was found to be 12.5%. For the same compound, the AC50 under setting [2] was 29.1 µM [rising, single point].

Regarding `c1cc2c(cc1C1CCCCC1)c1c3n2CCCNC3CCC1` (stereo not given), the cell number change is -76.7%. Under setting [1], the AC50 is 23.1 µM [falling, single point]. Besides, the AC50 under setting [2] is 18.4 µM [falling, single point].

On to `O=C(O)CCCNc1ccc(S(=O)(=O)N2CCCCC2)cc1`, for which the cell number change was -17.7%. The AC50 under setting [1] was 0.0082 µM [falling, full curve, poor fit]. Further, under setting [2], the AC50 was 3.26 µM [falling, full curve, poor fit].

`CCN(CC)CCCNC(=O)CSc1nc(C)cc(C)n1`: the cell number change was 14.8%.

With `CCC(NC(=S)NCc1ccccc1)C(=O)O` (stereo not given), the cell number change is 19.1%. Besides, the half-maximal activity concentration (AC50) under setting [2] is 29.1 µM [rising, single point].

Turning to `COc1cccc(-c2ccc3c(N)c(C(=O)NC4CC4)sc3n2)c1`, the cell number change is -16.4%. For the same compound, the AC50 under setting [2] was 4.11 µM [rising, full curve, poor fit].

Consider `COC(=O)[C@H](Cc1ccccc1)NC(=O)O[C@@H]1C(=O)c2cc(OC)ccc2O[C@H]1c1ccc(OC)c(Br)c1`, for which the cell number change is 2.73%.

Consider `COc1cc(CC(=O)OCC(=O)Nc2ccc(N3CCOCC3)cc2)cc(OC)c1OC`, for which the cell number change came out at 17.6%.

`CCc1ccc(-c2cc(C)no2)cc1S(=O)(=O)N1CC(=O)Nc2ccccc21`: the AC50 under setting [2] was 2.59 µM [falling, partial curve].

`Cc1nn(Cc2c(Cl)cccc2Cl)c(C)c1NC(=O)CCCn1nc([N+](=O)[O-])c(Cl)c1C`: the cell number change was -10.5%. The AC50 under setting [2] is 20.6 µM [falling, single point].

For the compound `COc1ccccc1C(=O)NCC(=O)NCCSc1ccc(Br)cc1`, the cell number change was -0.497%. The AC50 under setting [1] was 6.51 µM [rising, single point].

Consider `O=C(CNS(=O)(=O)c1ccc2ccccc2c1)OCc1nnc(-c2ccccc2)o1`, for which the AC50 under setting [2] was 0.146 µM [rising, full curve, poor fit].

With `Cc1cccc(OCCCCc2c(C)n[nH]c2C)c1`, the cell number change was -58.1%. In addition, under setting [1], the AC50 is 29.1 µM [falling, single point]. Under setting [2], the AC50 is 29.1 µM [falling, single point].

Regarding `Cc1ccc(C(c2sc3nc(C)nn3c2O)N2CCN(c3ccccc3)CC2)cc1` (stereo not given), the cell number change is -40.5%. Under setting [1], the AC50 was 32.6 µM [falling, partial curve, poor fit]. The AC50 under setting [2] is 29.1 µM [falling, partial curve, poor fit].

On to `CCOc1ccc(NCc2nc3ccccc3n2CCOc2ccccc2)cc1`, for which the cell number change amounted to 31.5%. Further, the AC50 under setting [1] is 6.51 µM [rising, partial curve]. Moreover, the AC50 under setting [2] is 7.31 µM [rising, partial curve].

With `Cn1c(=O)cc(OCCCC(=O)NCCN2CCN(c3ccccc3F)CC2)c2ccccc21`, the cell number change was -0.552%. The AC50 under setting [2] was 7.31 µM [rising, partial curve].

As to `O=C(CNc1cccc([N+](=O)[O-])c1)N/N=C/c1ccc(F)cc1`, the cell number change is -0.221%. Moreover, under setting [1], the AC50 was 0.92 µM [rising, partial curve, poor fit].

In the case of `CS(=O)(=O)c1ccc2nc(NC(=O)c3ccccc3)sc2c1`, the cell number change was found to be 0.501%. Under setting [2], the half-maximal activity concentration (AC50) is 0.517 µM [rising, single point].

Consider `CCOc1ccc(C(=O)NCC(=O)OCC(=O)N2CCCCC2)cc1`, for which the cell number change came to 14%.

In the case of `O=C(NCc1cc(C(F)(F)F)cc(C(F)(F)F)c1)C1CC(c2ccccc2[N+](=O)[O-])=NO1` (stereo not given), the cell number change is -13.5%. Further, under setting [2], the AC50 was 1.03 µM [falling, full curve, poor fit].

Consider `CCOC(=O)c1c(S(=O)(=O)NCC(=O)N2CCN(c3ccccc3)CC2)c(C)n(C)c1C`, for which the cell number change is 28.7%. Besides, the AC50 under setting [2] was 7.31 µM [rising, partial curve].

Consider `CCOC(=O)C(C)(C)NS(=O)(=O)c1ccc(Cl)c([N+](=O)[O-])c1`, for which, under setting [2], the half-maximal activity concentration (AC50) is 14.6 µM [falling, partial curve].

In the case of `CN(C)CCCN1C(=O)C(O)=C(C(=O)c2cc3ccccc3o2)C1c1ccccc1` (stereo not given), the cell number change is -33.5%. The AC50 under setting [1] was 29.1 µM [falling, single point]. In addition, the AC50 under setting [2] was 0.231 µM [falling, full curve, poor fit].

With `COCc1cc(C)nc2sc(C(=O)OC(C)C)c(N)c12`, the cell number change came to 1.26%. In addition, the AC50 under setting [2] is 1.64 µM [rising, full curve].

For the compound `Cc1cc(C(=O)COC(=O)c2ccccc2Br)c(C)n1CC1CCCO1` (stereo not given), the cell number change was determined as 18.6%. The AC50 under setting [2] was 10.3 µM [rising, partial curve, poor fit].

As for `CC(C)(C)C(=O)NCc1ccc(C(=O)CN2C(=O)NC3(CCCC3)C2=O)s1`, the AC50 under setting [1] is 0.058 µM [falling, full curve, poor fit] and the AC50 under setting [2] is 18.4 µM [falling, single point].

Regarding `CCC(C)NC(=O)CN(c1ccc(OC)cc1)S(=O)(=O)c1ccc(NC(C)=O)cc1` (stereo not given), the cell number change was 3.67%.

Consider `CCOc1cc(/C=N/Nc2cc(C)nc(-n3nc(C)cc3C)n2)ccc1O`, for which the cell number change is -33.8%. For the same compound, the AC50 under setting [1] was 18.4 µM [falling, single point]. Moreover, under setting [2], the half-maximal activity concentration (AC50) is 32.6 µM [falling, single point].

As to `Cc1nn2c(=O)cc(CSc3nc4ccccc4[nH]3)nc2s1`, the cell number change is 3.03%. In addition, under setting [2], the AC50 is 0.259 µM [rising, full curve, poor fit].

`CC(=O)Nc1ccc(-c2nc3cc(Cl)ccc3o2)cc1`: the cell number change is -9.67%. Further, under setting [2], the AC50 is 0.58 µM [rising, single point].

As for `CCc1nc(SCC(=O)Nc2nnc(CC)s2)c2c(=O)n(C)c(=O)n(C)c2n1`, the cell number change is -26.3%. Also, under setting [2], the AC50 is 29.1 µM [falling, single point].

On to `Nc1nc(Br)c2c(F)cccc2c1-c1ccc(Cl)cc1`, for which the cell number change was -0.287%.

On to `O=C(CN(c1ccc([N+](=O)[O-])cc1)S(=O)(=O)c1ccccc1)N1CCCCC1`, for which the cell number change was 13.5%. In addition, the AC50 under setting [1] is 4.11 µM [rising, partial curve, poor fit].

Turning to `CC1Cc2ccccc2N1C(=O)Cn1nc(C(=O)O)c2ccccc2c1=O` (stereo not given), the cell number change amounted to 0.144%.

Take `CC(OC(=O)c1cc2sccc2n1C)C(=O)NCc1ccc2c(c1)OCO2` (stereo not given): the cell number change was -53.4%. Moreover, under setting [1], the AC50 is 23.1 µM [falling, single point]. Also, the AC50 under setting [2] was 29.1 µM [falling, single point].

Regarding `O=C(NCc1ccccn1)C1CC(c2ccc(Cl)c(Cl)c2)=NO1` (stereo not given), the cell number change was determined as 118%.

With `O=C(CSc1nccc(=O)[nH]1)Nc1cccc2ccccc12`, the cell number change was -11.5%. Also, under setting [2], the AC50 is 1.16 µM [rising, full curve].

Regarding `COc1ccc(CC(=O)n2nc(-c3ccc(Cl)cc3)nc2NCc2ccco2)cc1`, the cell number change was determined as 63.6%.

`COc1ccc(N2CCSC2C(=O)NN)cc1` (stereo not given): the cell number change stood at 7.18%. Also, the AC50 under setting [1] was 4.11 µM [falling, single point]. For the same compound, under setting [2], the half-maximal activity concentration (AC50) is 5.17 µM [falling, single point].

As for `CCOc1ccc(/C=C2\SC(=S)N(CC(=O)NCCCN3CCOCC3)C2=O)cc1`, the cell number change is 17.9%.

For the compound `O=C(NCCC1=CCCCC1)c1ccc2c(c1)N(Cc1ccccc1)C(=O)CS2`, the cell number change was -15.6%. The AC50 under setting [2] is 1.3 µM [rising, full curve, poor fit].

For `O=C(Nc1ccnn1C1CCN(Cc2ccc(CO)o2)CC1)c1ccc2c(c1)OCO2`, the cell number change amounted to 17.3%.

Consider `O=C(CSc1nnc(SCc2ccc(Cl)cc2)s1)N/N=C/c1ccc(C(=O)O)cc1`, for which the cell number change was -29.9%. The AC50 under setting [1] is 4.11 µM [falling, full curve, poor fit]. Further, the AC50 under setting [2] was 1.3 µM [falling, full curve].

For `CCCc1nc2nc(C)c(NS(=O)(=O)c3ccc(Cl)cc3)c(=O)n2[nH]1`, the cell number change stood at 2.38%. Moreover, the AC50 under setting [2] was 6.51 µM [rising, partial curve, poor fit].

Regarding `COc1ccc(C2c3c(ncn(CCN4CCOCC4)c3=N)Oc3ccc4ccccc4c32)cc1OC` (stereo not given), the cell number change is -33.2%. Further, the half-maximal activity concentration (AC50) under setting [1] was 10.3 µM [falling, partial curve, poor fit].

With `CC1OC(OC2C(Oc3c(-c4ccc(O)cc4)oc4cc(O)cc(O)c4c3=O)OC(COC3O[C@@H](C)[C@H](O)[C@@H](O)C3O)C(O)C2O)C(O)C(O)C1O` (stereo not given in full), the cell number change is -47.5%. Further, the AC50 under setting [1] was 29.1 µM [falling, single point].

Regarding `COc1ccc(NC(C)C(=O)N2CCN(Cc3ccccc3)CC2)cc1` (stereo not given), the cell number change came out at 1.59%.

Take `O=C(N=C1SC2CS(=O)(=O)CC2N1c1ccccc1C(F)(F)F)C1CCCO1` (stereo not given): the cell number change is -12.3%. Further, the AC50 under setting [2] is 6.51 µM [falling, single point].

Regarding `COc1ccc(C(=O)N/N=C\c2coc3ccc(C)cc3c2=O)cc1`, the cell number change amounted to 1.62%. Besides, the AC50 under setting [2] is 35.5 µM [rising, single point].
